From paper doi:10.1101/2025.03.27.645700

Sequences of proteins named here, by UniProt entry; tags and fusion partners are left off. A change or cut given only in a name is not applied to a line headed by its entry.
UniProt A1XBS5: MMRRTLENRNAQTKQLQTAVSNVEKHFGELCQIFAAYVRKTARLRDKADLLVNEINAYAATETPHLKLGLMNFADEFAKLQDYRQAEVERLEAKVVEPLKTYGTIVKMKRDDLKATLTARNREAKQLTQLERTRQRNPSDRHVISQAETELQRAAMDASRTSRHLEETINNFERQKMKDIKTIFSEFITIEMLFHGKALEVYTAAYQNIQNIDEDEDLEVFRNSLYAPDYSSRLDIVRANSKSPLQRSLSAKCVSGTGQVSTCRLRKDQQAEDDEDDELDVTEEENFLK

Key:
HsRsg1 (human) = molecular target: T1, HsRsg1 (human) (UniProt Q9BU20); assay: pull-down
T1 sequence: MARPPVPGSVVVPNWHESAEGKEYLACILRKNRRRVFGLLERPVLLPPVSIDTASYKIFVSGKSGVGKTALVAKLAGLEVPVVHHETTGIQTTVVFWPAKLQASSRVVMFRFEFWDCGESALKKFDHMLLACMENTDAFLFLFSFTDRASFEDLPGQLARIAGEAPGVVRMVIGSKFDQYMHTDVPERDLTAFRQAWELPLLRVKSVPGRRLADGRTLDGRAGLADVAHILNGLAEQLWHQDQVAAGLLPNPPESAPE

XlCcz1 (Xenopus laevis) = molecular target: T2, XlCcz1 (Xenopus laevis) (UniProt Q7T102); assay: pull-down
T2 sequence: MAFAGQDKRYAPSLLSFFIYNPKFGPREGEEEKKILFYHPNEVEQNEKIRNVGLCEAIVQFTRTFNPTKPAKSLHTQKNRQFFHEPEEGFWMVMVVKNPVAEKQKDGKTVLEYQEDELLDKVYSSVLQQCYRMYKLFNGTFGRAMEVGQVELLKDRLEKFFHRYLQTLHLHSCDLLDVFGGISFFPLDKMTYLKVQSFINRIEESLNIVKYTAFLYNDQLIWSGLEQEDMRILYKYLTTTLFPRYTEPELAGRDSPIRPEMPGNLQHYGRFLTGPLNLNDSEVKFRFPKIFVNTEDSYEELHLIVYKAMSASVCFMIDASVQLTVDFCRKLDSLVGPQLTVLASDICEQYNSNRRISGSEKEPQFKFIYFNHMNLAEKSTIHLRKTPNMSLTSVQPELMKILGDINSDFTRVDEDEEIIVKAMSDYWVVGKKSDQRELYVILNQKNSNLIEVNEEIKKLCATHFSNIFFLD

HsCiBAR1 (human) = HsCiBAR1 (human) (UniProt A1XBS5); assay: co-sedimentation
XlMon1 (Xenopus laevis) = assay: pull-down

binding (HsRsg1 (human)): binds
Molecule: HsCiBAR1 (from UniProt A1XBS5)

binding (XlCcz1 (Xenopus laevis)): binds
Molecule: XlBulli (Xenopus laevis)

binding (HsCiBAR1 (human)): binds
B1: HsRsg1 (protein, UniProt Q9BU20 1-258)
chain: T1 sequence

binding (XlMon1 (Xenopus laevis)): binds
B2: XlCcz1 (protein, UniProt Q7T102 1-471)
chain: T2 sequence

No constants are given. Whether binding was seen depends on the method and setting. Binding can be weak; no strength is given. For some of these results: In cells and extracts the contact can be indirect. One block for each molecule: values may come before it.
